Source: publication PMC10632561
No constants are given. Whether binding was seen depends on the method and setting. Binding seen in cells or lysates may run through a third protein. Some binding calls cover weakened binding; strength is not graded here. Sequences can lack the tags named with a protein.

Amino acid sequences for entries named in this document (tags omitted). A change or cut given only in a name is not applied to a line headed by its entry.
UniProt Q09472: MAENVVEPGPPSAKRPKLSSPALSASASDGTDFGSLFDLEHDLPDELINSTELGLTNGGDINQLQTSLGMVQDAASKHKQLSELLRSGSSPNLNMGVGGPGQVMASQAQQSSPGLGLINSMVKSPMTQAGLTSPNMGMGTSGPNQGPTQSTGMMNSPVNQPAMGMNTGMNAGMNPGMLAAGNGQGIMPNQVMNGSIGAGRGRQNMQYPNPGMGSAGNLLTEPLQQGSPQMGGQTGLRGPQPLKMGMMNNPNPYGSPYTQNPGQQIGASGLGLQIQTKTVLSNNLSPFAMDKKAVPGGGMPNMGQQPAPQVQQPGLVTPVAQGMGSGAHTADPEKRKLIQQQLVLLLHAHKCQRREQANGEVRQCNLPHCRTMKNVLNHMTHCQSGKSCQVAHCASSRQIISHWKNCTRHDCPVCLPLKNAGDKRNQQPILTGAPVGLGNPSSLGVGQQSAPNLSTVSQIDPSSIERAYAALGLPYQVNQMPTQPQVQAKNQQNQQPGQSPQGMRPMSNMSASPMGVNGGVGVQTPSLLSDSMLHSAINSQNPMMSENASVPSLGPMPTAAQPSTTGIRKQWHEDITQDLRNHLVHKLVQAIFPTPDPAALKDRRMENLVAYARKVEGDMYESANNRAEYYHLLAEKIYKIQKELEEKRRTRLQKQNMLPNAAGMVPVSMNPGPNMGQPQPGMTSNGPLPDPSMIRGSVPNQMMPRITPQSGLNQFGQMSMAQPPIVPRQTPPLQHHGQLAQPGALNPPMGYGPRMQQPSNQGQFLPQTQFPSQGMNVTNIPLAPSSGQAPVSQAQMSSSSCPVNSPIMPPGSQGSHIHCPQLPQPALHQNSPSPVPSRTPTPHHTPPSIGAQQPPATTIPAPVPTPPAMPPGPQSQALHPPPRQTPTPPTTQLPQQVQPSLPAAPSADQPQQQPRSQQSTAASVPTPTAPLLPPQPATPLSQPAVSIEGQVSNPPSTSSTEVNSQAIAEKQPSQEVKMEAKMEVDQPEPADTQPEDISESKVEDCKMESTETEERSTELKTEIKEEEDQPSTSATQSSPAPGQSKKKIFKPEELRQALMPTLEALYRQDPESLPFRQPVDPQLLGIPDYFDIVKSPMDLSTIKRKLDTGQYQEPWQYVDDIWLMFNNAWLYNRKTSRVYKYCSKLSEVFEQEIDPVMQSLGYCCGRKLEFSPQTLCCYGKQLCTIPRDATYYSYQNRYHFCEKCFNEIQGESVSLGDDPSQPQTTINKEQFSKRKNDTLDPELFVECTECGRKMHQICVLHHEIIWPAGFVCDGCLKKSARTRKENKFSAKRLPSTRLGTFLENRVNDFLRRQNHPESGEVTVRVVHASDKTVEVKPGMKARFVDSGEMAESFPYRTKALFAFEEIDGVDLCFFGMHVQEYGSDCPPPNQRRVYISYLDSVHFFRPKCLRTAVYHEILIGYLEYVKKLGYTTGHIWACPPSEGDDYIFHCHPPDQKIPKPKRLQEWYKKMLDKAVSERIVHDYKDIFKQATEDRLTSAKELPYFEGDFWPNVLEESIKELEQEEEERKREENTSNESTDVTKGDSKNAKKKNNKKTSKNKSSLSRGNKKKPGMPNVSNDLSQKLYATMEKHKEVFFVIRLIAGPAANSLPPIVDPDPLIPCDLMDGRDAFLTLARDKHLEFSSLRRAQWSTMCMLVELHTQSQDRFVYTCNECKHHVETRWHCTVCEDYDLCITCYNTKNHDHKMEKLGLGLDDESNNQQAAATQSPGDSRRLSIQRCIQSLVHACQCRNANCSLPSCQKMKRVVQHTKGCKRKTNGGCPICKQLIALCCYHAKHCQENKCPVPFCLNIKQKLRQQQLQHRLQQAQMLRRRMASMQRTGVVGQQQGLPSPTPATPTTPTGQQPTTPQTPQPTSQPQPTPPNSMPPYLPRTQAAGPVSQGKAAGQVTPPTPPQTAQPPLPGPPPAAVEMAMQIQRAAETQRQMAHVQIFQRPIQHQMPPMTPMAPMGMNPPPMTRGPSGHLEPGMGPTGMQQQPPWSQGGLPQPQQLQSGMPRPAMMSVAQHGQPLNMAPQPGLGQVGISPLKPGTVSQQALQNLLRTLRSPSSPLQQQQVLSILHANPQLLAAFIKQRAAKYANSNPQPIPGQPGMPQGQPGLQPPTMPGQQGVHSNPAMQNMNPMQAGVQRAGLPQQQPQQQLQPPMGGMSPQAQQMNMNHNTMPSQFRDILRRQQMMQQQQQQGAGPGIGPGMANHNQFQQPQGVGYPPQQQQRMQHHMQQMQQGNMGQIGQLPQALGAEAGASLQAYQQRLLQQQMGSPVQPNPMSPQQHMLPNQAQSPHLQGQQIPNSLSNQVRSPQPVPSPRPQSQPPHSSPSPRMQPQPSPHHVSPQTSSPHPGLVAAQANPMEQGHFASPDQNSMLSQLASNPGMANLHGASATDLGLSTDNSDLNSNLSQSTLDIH
UniProt Q9Y4A5: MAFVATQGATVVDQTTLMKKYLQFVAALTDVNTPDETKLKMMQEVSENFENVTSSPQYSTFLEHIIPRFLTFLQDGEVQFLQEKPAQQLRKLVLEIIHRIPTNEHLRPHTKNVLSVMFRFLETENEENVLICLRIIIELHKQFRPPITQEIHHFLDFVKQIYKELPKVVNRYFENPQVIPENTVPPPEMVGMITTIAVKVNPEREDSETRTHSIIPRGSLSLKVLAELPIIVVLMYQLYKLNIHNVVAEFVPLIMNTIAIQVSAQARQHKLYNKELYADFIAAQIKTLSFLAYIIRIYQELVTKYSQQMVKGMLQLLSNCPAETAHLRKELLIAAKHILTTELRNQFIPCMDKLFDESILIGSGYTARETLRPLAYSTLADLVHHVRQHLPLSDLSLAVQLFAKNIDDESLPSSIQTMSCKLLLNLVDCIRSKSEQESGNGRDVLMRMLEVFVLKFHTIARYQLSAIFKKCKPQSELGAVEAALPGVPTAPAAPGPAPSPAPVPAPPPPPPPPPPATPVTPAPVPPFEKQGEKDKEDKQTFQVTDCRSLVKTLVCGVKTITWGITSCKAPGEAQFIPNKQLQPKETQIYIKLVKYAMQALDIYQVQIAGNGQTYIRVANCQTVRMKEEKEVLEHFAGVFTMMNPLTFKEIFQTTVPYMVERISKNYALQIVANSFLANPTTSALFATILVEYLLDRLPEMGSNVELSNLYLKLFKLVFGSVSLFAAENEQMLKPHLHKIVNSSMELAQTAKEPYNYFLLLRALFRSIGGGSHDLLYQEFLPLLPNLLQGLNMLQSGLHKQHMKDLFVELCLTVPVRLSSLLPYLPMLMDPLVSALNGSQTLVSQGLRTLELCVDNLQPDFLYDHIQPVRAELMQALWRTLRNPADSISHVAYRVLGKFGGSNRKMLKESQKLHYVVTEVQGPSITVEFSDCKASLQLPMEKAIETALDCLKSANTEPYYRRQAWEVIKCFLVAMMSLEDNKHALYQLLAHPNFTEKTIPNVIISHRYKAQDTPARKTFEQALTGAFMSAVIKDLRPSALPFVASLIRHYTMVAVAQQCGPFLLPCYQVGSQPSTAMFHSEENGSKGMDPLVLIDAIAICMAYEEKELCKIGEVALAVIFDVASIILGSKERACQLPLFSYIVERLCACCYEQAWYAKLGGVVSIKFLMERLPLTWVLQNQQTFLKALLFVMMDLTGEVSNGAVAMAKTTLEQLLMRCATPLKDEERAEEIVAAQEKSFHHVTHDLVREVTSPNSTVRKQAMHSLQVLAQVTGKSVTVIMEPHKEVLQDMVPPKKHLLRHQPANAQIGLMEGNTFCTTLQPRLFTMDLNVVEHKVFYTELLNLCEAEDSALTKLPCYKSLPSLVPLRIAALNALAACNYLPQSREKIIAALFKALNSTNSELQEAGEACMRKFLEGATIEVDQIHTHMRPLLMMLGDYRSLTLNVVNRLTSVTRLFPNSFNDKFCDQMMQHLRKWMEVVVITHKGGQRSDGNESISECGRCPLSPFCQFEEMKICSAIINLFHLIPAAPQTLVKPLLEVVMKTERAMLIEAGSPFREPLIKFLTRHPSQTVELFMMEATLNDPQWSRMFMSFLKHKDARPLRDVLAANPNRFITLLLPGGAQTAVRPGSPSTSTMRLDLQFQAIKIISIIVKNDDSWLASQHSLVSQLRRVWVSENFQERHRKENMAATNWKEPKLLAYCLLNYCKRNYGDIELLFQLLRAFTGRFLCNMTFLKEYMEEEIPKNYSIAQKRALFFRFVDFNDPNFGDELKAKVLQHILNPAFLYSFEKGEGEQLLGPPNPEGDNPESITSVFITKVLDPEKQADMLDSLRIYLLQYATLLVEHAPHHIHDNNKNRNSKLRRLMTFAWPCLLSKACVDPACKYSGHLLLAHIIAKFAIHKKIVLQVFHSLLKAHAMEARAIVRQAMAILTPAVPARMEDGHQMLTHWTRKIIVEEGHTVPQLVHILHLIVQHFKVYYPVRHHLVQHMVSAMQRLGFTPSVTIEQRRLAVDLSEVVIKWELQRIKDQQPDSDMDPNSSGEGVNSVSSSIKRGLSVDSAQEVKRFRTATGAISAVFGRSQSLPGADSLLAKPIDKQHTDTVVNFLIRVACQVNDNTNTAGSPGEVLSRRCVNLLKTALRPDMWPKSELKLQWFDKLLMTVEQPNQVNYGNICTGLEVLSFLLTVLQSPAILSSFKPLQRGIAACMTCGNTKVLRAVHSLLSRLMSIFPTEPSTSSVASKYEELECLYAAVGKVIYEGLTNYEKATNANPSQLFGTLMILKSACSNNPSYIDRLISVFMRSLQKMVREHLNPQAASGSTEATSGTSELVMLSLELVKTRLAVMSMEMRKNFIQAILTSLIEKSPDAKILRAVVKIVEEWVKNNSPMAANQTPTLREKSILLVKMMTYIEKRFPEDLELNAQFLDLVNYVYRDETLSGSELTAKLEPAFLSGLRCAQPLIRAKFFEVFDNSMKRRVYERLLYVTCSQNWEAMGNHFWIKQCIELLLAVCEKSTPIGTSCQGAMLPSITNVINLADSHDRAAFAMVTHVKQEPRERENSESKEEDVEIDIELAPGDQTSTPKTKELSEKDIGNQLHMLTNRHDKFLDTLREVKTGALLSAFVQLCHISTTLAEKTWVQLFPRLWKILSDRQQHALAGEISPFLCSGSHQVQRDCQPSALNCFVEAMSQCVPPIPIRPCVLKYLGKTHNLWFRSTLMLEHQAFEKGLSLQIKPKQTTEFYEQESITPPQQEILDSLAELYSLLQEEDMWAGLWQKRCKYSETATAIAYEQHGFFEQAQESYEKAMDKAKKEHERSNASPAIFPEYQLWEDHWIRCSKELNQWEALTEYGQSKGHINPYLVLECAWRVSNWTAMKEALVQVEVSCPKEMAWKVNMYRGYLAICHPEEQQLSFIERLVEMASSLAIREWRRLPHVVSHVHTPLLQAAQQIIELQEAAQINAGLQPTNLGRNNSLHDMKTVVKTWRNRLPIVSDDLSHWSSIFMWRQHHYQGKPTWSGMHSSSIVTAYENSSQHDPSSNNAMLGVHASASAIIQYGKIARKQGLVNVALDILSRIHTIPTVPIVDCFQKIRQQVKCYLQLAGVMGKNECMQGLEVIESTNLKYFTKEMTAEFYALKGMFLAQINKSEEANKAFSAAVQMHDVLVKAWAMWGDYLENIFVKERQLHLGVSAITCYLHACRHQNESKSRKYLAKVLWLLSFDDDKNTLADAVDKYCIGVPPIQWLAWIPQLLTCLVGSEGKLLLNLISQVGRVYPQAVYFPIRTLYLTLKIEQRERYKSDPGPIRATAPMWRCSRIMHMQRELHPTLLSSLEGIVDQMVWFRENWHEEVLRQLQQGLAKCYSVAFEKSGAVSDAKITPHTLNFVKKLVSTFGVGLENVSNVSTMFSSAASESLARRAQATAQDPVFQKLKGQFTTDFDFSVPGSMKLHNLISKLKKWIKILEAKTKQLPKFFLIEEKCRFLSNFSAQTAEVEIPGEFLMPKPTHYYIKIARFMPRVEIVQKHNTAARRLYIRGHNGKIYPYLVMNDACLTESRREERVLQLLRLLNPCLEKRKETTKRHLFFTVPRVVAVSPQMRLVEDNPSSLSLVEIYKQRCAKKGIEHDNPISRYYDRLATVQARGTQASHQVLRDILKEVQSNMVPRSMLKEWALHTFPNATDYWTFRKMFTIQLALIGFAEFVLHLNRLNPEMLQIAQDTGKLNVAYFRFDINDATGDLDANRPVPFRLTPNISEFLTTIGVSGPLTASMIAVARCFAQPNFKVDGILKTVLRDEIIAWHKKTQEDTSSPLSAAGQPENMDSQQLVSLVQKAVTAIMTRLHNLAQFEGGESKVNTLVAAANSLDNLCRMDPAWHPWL

Biological target: T1, Histone-lysine N-methyltransferase SMYD3 (human (endogenous in HGC-27, HT-29, HCT-116)) (UniProt Q9H7B4)
T1 sequence: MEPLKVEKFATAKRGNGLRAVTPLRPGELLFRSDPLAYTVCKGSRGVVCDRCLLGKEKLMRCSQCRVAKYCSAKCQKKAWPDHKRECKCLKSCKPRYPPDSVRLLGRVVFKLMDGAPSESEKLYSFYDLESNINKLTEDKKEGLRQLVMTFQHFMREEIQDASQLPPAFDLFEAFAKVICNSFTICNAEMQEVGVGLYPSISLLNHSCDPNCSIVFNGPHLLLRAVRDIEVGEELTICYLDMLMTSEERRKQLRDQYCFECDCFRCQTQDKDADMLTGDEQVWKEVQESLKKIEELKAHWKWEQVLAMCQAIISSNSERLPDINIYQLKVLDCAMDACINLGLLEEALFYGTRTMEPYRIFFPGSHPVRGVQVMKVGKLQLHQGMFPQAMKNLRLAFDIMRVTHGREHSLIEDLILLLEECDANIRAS
Assay: co-IP; endogenous proteins in whole cell lysates of HGC-27, HT-29 and HCT-116; lysis buffer 50 mM Tris-HCl pH 7.4, 5 mM EDTA, 250 mM NaCl, 1% Triton X-100; antibody (anti-SMYD3, anti-p300 or anti-TRRAP) on Dynabeads Protein A, 3 h at room temperature; immunoblot; anti-IgG and anti-GFP as controls

Substance	binding
E1A-associated Protein p300 (EP300) (from UniProt Q09472 1-2414)	binds
TRansformation/tRanscription domain-Associated Protein (TRRAP) (from UniProt Q9Y4A5 1-3859)	binds
